Library screen at single concentrations

The values are deposited in ChEMBL (CHEMBL3988442, “University of Dundee, Small-Polar-MMV Screening Library” (2021)).

Each number is a percent effect as filed. The controls that fix the scale are not given in the record; negative values are as filed. Compounds were drawn at random from those tested, without regard to their results.

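Growth of Mycobacterium tuberculosis over 3 days (7H9 medium with glucose and tyloxapol); the read-out is not stated. Compounds at 500 µM. The record gives no direction; compounds that gave an IC50 in retests scored well above the rest, so higher reads as more growth inhibition. Size under these conditions: about 18,000 compounds, about 1,400 of them at 50% or above in at least one test.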

Compound,Percent Effect
N#Cc1ccc(F)cc1CNC1(CCO)CCOCC1,-20.47
OCc1cnc2c(F)cccc2c1,51.46
COc1ccccc1C(=O)N1CC[C@H](N)C1,0.3489
COC(=O)c1cc(NC(C)=O)ccc1N1CCOCC1,2.486
NC(=O)C1CCCN(C(=O)CNc2ccccc2)C1 (stereo unspecified),10.03
c1cc(-c2nnc[nH]2)ccn1,-12.45
Cc1ccc(CN(C)C(=O)CSc2nncn2C)o1,0.9015
Cc1cnc(CNCC2(O)CNCCOC2)cn1 (stereo unspecified),-24.46
COc1ccc(NC(=O)NCc2cc[nH]n2)cc1,-14.13
CN1CCC(N2CCN(C)c3ccccc3C2)C1=O (stereo unspecified),25.6
COCCNCCNC(=O)c1cnn(C)c1,-1.094
CN(Cc1ccccc1)C(=O)CNC(=O)c1ccco1,19.61
CCn1cc(C(=O)OCCC2CCCO2)cn1 (stereo unspecified),41.72
CC(C)c1cc(C(=O)NC(C(N)=O)C(C)C)n[nH]1 (stereo unspecified),-7.933
O=C(CSc1nncs1)NC1COc2ccccc21 (stereo unspecified),31.31
CN1CCN(C(=O)CC2Cc3ccccc3C2)CC1,70.1
CC(=O)Nc1ccc(CNC(C)C(C)C)cc1 (stereo unspecified),5.682
O=C(Cc1cccnc1)Nc1cc(O)cc(F)c1,12.54
Cc1csc(N2CCCNCC2)n1,32.99
CCS(=O)(=O)N(C)c1ccc(F)cc1OC,29.37
N#Cc1ccnc(-n2ccnc2)c1,-6.345
CCC1COCCN1C(=O)CN1Cc2ccccc2C1 (stereo unspecified),9.366
Cc1ccc(C#N)cc1NC(=O)N1CC(N(C)C)C1,13.26
O=c1ccc2ccccc2n1CCCn1cnnn1,33.42
Cn1cc(S(=O)(=O)NCC(N)c2ccccc2)cn1 (stereo unspecified),22.76
CN(CCOc1ccc(Cl)cc1)C(=O)C(C)(C)CN,84.49
CS(=O)(=O)c1ccc(N2CCNCC2)cc1,5.784
COC(=O)c1ccc(C(=O)Nc2ncccc2O)s1,40.51
CCNCCOc1cccc(OCC)c1,41.97
CC(=O)N1CCC(CN2CCCCC2)C1 (stereo unspecified),-7.373
CN(CCCNC(=O)c1cnccn1)CC(F)(F)F,44.64
O=S(=O)(NCc1ccncc1)c1cccc2nonc12,1.77
CC(C)[C@H](N)C(=O)N1CCC(C2CCOCC2)CC1,1.108
COc1ccccc1CNc1ccc(C#N)cn1,49.78
COc1ccccc1CC1(O)CCNCC1,6.378
CCC(COC)NCc1nnc2n1CCCC2 (stereo unspecified),13.13
Cc1c(C(N)=O)nnn1-c1ccc2c(c1)OCCO2,-2.486
NCc1ccc(N2CCOCC2)c(F)c1,14.61
Cn1c(SC2CCCCNC2=O)nc2sccc2c1=O (stereo unspecified),-3.221
CN(C)c1ccc(NC(=O)NC2CCSCC2)nc1,-2.344
Cc1cc(CN)nc(N(C)C)n1,20.64
CC[C@@]1(O)CCN(c2ncnc3onc(C)c23)C[C@H]1O,8.574
CCC[C@H]1CN(CCCO)C[C@@H]1NC(=O)c1cnn[nH]1,4.532
O[C@H]1CCN(c2ncnc3ccccc23)C1,2.487
CCN1CCSc2ccc(C(=O)NCCCOC)cc21,0.3678
N#Cc1ccc(OC2CCNC2)nc1 (stereo unspecified),10.27
CSCCC(O)C(=O)NCC1(Cn2cccn2)CC1 (stereo unspecified),2.845
CCC(=O)NC(C)(C)C,-4.17
CCOc1ccccc1N(C)C(=O)c1cnn(CC)c1,17.24
c1cc(C2CCNCC2)n[nH]1,-0.2366
Cc1ncsc1C(=O)N1CCOC(C)C1 (stereo unspecified),-10.38
CCOC1CCN(C(=O)C(O)c2ccc(F)cc2)CC1 (stereo unspecified),16.92
Cc1ccn(CC(=O)N2CCC3(CCC3O)CC2)n1 (stereo unspecified),9.771
OCCOC1CCCN(Cc2ccc(F)cc2F)C1 (stereo unspecified),23.7
COc1ccc(CN2CCCC(CO)C2)cc1OC (stereo unspecified),-0.3077
O=S(=O)(N1CCCCC1)N(Cc1cccnc1)C1CC1,47.73
COC[C@H]1CCCN1CCC(=O)Nc1cccnc1,11.57
Cc1ccc(CNC(=O)C2CCCN(C(N)=O)C2)s1 (stereo unspecified),45.88
C[C@@H](NC(=O)Nc1nccn(C)c1=O)c1ccccc1,23.97
NCC(=O)Nc1ccc2c(c1)OCCO2,19.63
NCc1cccc(OCC(F)F)n1,20.45
Cc1cnc(N)nc1NCC(O)CN1CCCCC1 (stereo unspecified),4.766
COC(CO)Cc1ccccc1 (stereo unspecified),5.739

For reference, 8 entries once more:

{"compound": "CCC[C@H]1CN(CCCO)C[C@@H]1NC(=O)c1cnn[nH]1", "Percent Effect": 4.532}
{"compound": "Cc1c(C(N)=O)nnn1-c1ccc2c(c1)OCCO2", "Percent Effect": -2.486}
{"compound": "NCc1ccc(N2CCOCC2)c(F)c1", "Percent Effect": 14.61}
{"compound": "Cc1cnc(N)nc1NCC(O)CN1CCCCC1", "stereo": "stereo unspecified", "Percent Effect": 4.766}
{"compound": "CCOC1CCN(C(=O)C(O)c2ccc(F)cc2)CC1", "stereo": "stereo unspecified", "Percent Effect": 16.92}
{"compound": "CC(=O)N1CCC(CN2CCCCC2)C1", "stereo": "stereo unspecified", "Percent Effect": -7.373}
{"compound": "Cn1c(SC2CCCCNC2=O)nc2sccc2c1=O", "stereo": "stereo unspecified", "Percent Effect": -3.221}
{"compound": "CCC(COC)NCc1nnc2n1CCCC2", "stereo": "stereo unspecified", "Percent Effect": 13.13}